Results reported in paper PMC6660601.
No constants are given. Whether binding was seen depends on the method and setting. In cells and extracts the contact can be indirect. Some results given as binding are weak or reduced against the parent protein; the word gives no strength.

Sequences of proteins named here, by UniProt entry; tags and fusion partners are left off.
UniProt O08586: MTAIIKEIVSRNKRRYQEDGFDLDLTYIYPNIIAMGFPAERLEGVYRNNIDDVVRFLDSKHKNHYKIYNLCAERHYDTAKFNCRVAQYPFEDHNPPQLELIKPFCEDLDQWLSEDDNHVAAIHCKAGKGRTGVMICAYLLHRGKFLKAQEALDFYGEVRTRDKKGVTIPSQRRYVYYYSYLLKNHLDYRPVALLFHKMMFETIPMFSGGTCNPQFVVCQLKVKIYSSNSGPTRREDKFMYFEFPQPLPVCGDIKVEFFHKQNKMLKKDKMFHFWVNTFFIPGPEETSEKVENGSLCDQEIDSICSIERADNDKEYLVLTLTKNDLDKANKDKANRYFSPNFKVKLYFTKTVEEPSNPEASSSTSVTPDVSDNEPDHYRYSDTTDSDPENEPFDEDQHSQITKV

Columns and labels:
[1] = biological target: T1, Myosin 1b (MYO1B), endogenous in immortalized MEFs (mouse (endogenous in MEF)) (UniProt P46735); experiment: co-IP; immunoprecipitation with anti-MYO1B antibody from whole-cell lysates of immortalized MEFs transduced with rAd/CMV-LacZ or rAd/CMV-MYO1B, 16 h serum starvation; blot for PTEN; normal IgG as negative control
T1 sequence: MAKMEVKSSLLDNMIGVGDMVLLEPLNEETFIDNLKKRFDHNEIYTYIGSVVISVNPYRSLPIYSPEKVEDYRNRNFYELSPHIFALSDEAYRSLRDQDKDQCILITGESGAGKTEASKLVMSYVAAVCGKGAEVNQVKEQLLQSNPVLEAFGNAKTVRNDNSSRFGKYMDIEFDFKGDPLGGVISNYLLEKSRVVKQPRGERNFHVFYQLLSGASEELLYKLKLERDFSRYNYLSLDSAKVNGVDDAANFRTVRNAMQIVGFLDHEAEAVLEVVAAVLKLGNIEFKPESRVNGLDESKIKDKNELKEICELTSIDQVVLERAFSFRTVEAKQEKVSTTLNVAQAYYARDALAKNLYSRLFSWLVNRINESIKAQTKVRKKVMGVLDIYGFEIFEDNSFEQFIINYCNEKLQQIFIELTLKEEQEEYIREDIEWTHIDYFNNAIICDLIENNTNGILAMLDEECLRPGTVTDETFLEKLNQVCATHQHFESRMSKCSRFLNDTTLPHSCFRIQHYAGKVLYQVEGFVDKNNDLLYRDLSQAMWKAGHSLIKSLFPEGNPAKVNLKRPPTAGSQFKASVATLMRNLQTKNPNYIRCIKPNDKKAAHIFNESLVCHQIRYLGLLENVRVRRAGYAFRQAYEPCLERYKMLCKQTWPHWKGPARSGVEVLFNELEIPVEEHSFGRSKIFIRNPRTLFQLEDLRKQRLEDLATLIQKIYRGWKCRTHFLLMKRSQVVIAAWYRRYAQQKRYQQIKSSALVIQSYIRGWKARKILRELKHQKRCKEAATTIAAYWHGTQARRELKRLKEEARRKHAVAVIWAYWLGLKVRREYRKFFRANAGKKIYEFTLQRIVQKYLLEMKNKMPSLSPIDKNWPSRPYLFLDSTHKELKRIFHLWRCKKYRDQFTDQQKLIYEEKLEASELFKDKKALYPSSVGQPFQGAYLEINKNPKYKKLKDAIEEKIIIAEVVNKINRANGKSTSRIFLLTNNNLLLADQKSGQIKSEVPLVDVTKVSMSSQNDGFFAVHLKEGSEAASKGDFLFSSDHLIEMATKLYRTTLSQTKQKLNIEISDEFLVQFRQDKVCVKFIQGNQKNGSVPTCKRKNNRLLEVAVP

[2] = biological target: T2, Overexpressed MYO1B (rAd/CMV-MYO1B) (UniProt P46735); experiment: as above
T2 sequence: T1 sequence

In the case of “Phosphatase and tensin homolog (PTEN), endogenous in immortalized MEFs (from UniProt O08586 1-403)”, the binding [1] is reported as “binds” and the binding [2] is reported as “binds”.
